Values quoted from earlier work in patent US12472178B2, “Amorphous solid dispersions” (INTRA-CELLULAR THERAPIES, INC., priority 2016, dated 2025).
At least one structure is not confirmed: it was looked up by name or label, or the drawing left a doubt.

Settings: cited from earlier work

Structure (SMILES): CN1CCN2c3c(cccc31)C1CN(CCCC(=O)c3ccc(F)cc3)CCC12.Cl (stereo not shown) [hydrochloride salt form of ITI-007]
- stability: poor stability
